From paper PMC3834312
These are yes or no findings as the source states them, for the method shown. For part of these data: Binding seen in cells or lysates may run through a third protein. Some binding calls cover weakened binding; strength is not graded here. For part of these data: Sequences can lack the tags named with a protein. One block for each binder: values may come before it.

Sequences of proteins named here, by UniProt entry; tags and fusion partners are left off.
UniProt Q9UH99: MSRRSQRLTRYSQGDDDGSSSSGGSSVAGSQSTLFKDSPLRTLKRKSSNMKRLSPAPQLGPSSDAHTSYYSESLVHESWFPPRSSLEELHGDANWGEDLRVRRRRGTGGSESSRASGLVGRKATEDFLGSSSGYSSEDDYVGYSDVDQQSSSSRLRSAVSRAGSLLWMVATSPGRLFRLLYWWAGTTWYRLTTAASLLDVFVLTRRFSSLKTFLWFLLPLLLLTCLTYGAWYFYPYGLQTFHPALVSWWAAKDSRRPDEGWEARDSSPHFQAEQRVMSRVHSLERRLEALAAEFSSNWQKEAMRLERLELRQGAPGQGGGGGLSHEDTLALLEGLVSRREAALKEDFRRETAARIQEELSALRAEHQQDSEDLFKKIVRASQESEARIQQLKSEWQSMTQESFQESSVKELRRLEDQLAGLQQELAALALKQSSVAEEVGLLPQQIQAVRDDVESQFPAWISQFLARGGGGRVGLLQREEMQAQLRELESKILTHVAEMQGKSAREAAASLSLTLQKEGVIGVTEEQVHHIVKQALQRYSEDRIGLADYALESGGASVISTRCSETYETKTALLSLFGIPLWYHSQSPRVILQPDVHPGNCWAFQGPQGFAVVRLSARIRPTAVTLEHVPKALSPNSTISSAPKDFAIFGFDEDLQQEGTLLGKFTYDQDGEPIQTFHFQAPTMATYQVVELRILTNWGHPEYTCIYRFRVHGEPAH

How the values were obtained:
[1] = target: SUN2 BiFC fusion carrying the Venus-tag on the nucleoplasmic N-terminus (UniProt Q9UH99); test: split reporter; Venus BiFC (amino acids 1-157 and 158-238) in transfected HeLa cells, 1 hr at 30°C before fixation, confocal microscopy
[2] = target: SUN2 (yeast two hybrid, data not shown) (UniProt Q9UH99); test: two-hybrid; yeast two hybrid analysis, data not shown

binding [1]: binds
B1: RRP1B BiFC fusion (Venus fragment) (protein, UniProt Q14684 1-758)
chain: MAPAMQPAEIQFAQRLASSEKGIRDRAVKKLRQYISVKTQRETGGFSQEELLKIWKGLFYCMWVQDEPLLQEELANTIAQLVHAVNNSAAQHLFIQTFWQTMNREWKGIDRLRLDKYYMLIRLVLRQSFEVLKRNGWEESRIKVFLDVLMKEVLCPESQSPNGVRFHFIDIYLDELSKVGGKELLADQNLKFIDPFCKIAAKTKDHTLVQTIARGVFEAIVDQSPFVPEETMEEQKTKVGDGDLSAEEIPENEVSLRRAVSKKKTALGKNHSRKDGLSDERGRDDCGTFEDTGPLLQFDYKAVADRLLEMTSRKNTPHFNRKRLSKLIKKFQDLSEGSSISQLSFAEDISADEDDQILSQGKHKKKGNKLLEKTNLEKEKGSRVFCVEEEDSESSLQKRRRKKKKKHHLQPENPGPGGAAPSLEQNRGREPEASGLKALKARVAEPGAEATSSTGEESGSEHPPAVPMHNKRKRPRKKSPRAHREMLESAVLPPEDMSQSGPSGSHPQGPRGSPTGGAQLLKRKRKLGVVPVNGSGLSTPAWPPLQQEGPPTGPAEGANSHTTLPQRRRLQKKKAGPGSLELCGLPSQKTASLKKRKKMRVMSNLVEHNGVLESEAGQPQALGSSGTCSSLKKQKLRAESDFVKFDTPFLPKPLFFRRAKSSTATHPPGPAVQLNKTPSSSKKVTFGLNRNMTAEFKKTDKSILVSPTGPSRVAFDPEQKPLHGVLKTPTSSPASSPLVAKKPLTTTPRRRPRAMDFF

binding [1]: binds
B2: SIPA1 BiFC fusion (Venus fragment) (protein, UniProt Q96FS4 1-1042)
chain: MPMWAGGVGSPRRGMAPASTDDLFARKLRQPARPPLTPHTFEPRPVRGPLLRSGSDAGEARPPTPASPRARAHSHEEASRPAATSTRLFTDPLALLGLPAEEPEPAFPPVLEPRWFAHYDVQSLLFDWAPRSQGMGSHSEASSGTLASAEDQAASSDLLHGAPGFVCELGGEGELGLGGPASPPVPPALPNAAVSILEEPQNRTSAYSLEHADLGAGYYRKYFYGKEHQNFFGMDESLGPVAVSLRREEKEGSGGGTLHSYRVIVRTTQLRTLRGTISEDALPPGPPRGLSPRKLLEHVAPQLSPSCLRLGSASPKVPRTLLTLDEQVLSFQRKVGILYCRAGQGSEEEMYNNQEAGPAFMQFLTLLGDVVRLKGFESYRAQLDTKTDSTGTHSLYTTYQDHEIMFHVSTMLPYTPNNQQQLLRKRHIGNDIVTIVFQEPGSKPFCPTTIRSHFQHVFLVVRAHTPCTPHTTYRVAVSRTQDTPAFGPALPAGGGPFAANADFRAFLLAKALNGEQAAGHARQFHAMATRTRQQYLQDLATNEVTTTSLDSASRFGLPSLGGRRRAAPRGPGAELQAAGSLVWGVRAAPGARVAAGAQASGPEGIEVPCLLGISAEALVLVAPRDGRVVFNCACRDVLAWTFSEQQLDLYHGRGEAITLRFDGSPGQAVGEVVARLQLVSRGCETRELALPRDGQGRLGFEVDAEGFVTHVERFTFAETAGLRPGARLLRVCGQTLPSLRPEAAAQLLRSAPKVCVTVLPPDESGRPRRSFSELYTLSLQEPSRRGAPDPVQDEVQGVTLLPTTKQLLHLCLQDGGSPPGPGDLAEERTEFLHSQNSLSPRSSLSDEAPVLPNTTPDLLLATTAKPSVPSADSETPLTQDRPGSPSGSEDKGNPAPELRASFLPRTLSLRNSISRIMSEAGSGTLEDEWQAISEIASTCNTILESLSREGQPIPESGDPKGTPKSDAEPEPGNLSEKVSHLESMLRKLQEDLQKEKADRAALEEEVRSLRHNNRRLQAESESAATRLLLASKQLGSPTADLA

binding [2]: binds
B3: SIPA1 (yeast two hybrid, data not shown) (protein, UniProt Q96FS4 1-1042)
chain: B2 chain
